From PubChem BioAssay AID2685 (National Center for Advancing Translational Sciences (NCATS), 2010) come the findings set out here.

This assay is described as follows: qHTS Assay for Lipid Storage Modulators in Drosophila S3 Cells.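 As to cell number change: cells counted by Cell Tracker Red CMTPX staining in the red channel.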 The conditions noted are these: BODIPY lipid droplet fluorescence, 18-24 h; for cell number change: measured here: cell count max response, cells fed with added oleic acid. In short, it runs like this:
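Drosophila S3 cells got compounds at several concentrations plus oleic acid (400 uM solution). Laser-scanning cytometry with 488 nm excitation read lipid droplets at 500-530 nm and cells at 575-640 nm. Percent activity was relative to 20 uM Triacsin C.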

Where [1] appears, read: measured here: cell number channel AC50, cells fed with added oleic acid.
[2] abbreviates: measured here: lipid fluorescence (Fed channel) AC50, cells fed with added oleic acid.

The structures appear in SMILES notation. The list shows a part of the results. The main result of the screen is listed elsewhere. These columns were measured beside it and carry no call. Compounds called inactive in the main read-out are mostly missing here. The note in brackets gives the kind of curve behind each potency; many fits are weak.

Consider `Cc1ccc(NC(=O)C(OC(=O)c2ccc(O)cc2)c2ccccc2)cc1Cl` (stereo unspecified), for which the cell number change is -33.3%. In addition, the AC50 under setting [1] is 29.1 µM [falling, single point].
Regarding `Cc1ccc(-n2c(=S)sc3c(=O)n(-c4ccc(F)cc4)c(SCC(=O)O)nc32)cc1C`, the cell number change was found to be 36.6%. The AC50 under setting [1] is 29.1 µM [rising, single point].
On to `Cc1ccc(N2CC(C(=O)Nc3ccc(S(=O)(=O)N4CCCC4)cc3)CC2=O)cc1C` (stereo unspecified), for which the cell number change is 3.95%.
Take `COc1ccc(NC(=O)C2CCCN(c3c4c(nc5ncnn35)CCC4)C2)cc1` (stereo unspecified): the cell number change is -52.8%. For the same compound, the AC50 under setting [1] is 20.6 µM [falling, single point]. The AC50 under setting [2] was 10.3 µM [falling, partial curve].
Take `O=S(=O)(c1ccc(Cl)s1)N1CCN(C/C=C/c2ccccc2)CC1`: the cell number change was -26.1%.
As for `CCN1CCN(CCCNC(=O)C2c3ccccc3C(=O)N(c3ccc(OC)cc3)C2c2ccc(OC)cc2)CC1` (stereo unspecified), the cell number change is -39.4%. Moreover, the AC50 under setting [1] was 29.1 µM [falling, single point].
Consider `CC(OC(=O)C1CSC2(C)CCC(=O)N12)C(=O)Nc1cccc(C#N)c1` (stereo unspecified), for which the cell number change is -3.5%.
Take `CCOc1ccc([N+](=O)[O-])cc1CNC1CCCCCCC1`: the cell number change was -17.4%. The AC50 under setting [2] was 2.91 µM [falling, full curve].
Consider `Cc1cc(F)ccc1S(=O)(=O)Nc1ccc(O)c(Sc2ncn[nH]2)c1`, for which the cell number change was -12.2%. The AC50 under setting [2] is 20.6 µM [falling, single point].
As to `CC1CCCC(NC(=O)COC(=O)c2cc(S(=O)(=O)N3CCCCC3)ccc2N2CCOCC2)C1C` (stereo unspecified), the AC50 under setting [2] was 0.13 µM [falling, full curve, poor fit].
For the compound `Cc1c(C)n(Cc2ccc(F)cc2)c2ccc(C(=O)NCCN3CCOCC3)cc12`, under setting [2], the AC50 was 6.51 µM [rising, single point].
In the case of `O=C1C2CCCN2C(=O)N1CCCCN1CCN(c2ccc(F)cc2)CC1` (stereo unspecified), the cell number change amounted to 2.08%. Further, under setting [2], the AC50 was 32.6 µM [falling, single point].
For the compound `COc1ccccc1NC(=O)C1=C(C)Nc2nc(-c3ccc(N(C)C)cc3)nn2C1c1ccncc1` (stereo unspecified), the cell number change is -17.3%. Besides, the AC50 under setting [1] was 0.731 µM [rising, full curve]. Besides, the AC50 under setting [2] was 6.51 µM [rising, partial curve, poor fit].
Turning to `O=C(CCn1c(=O)c2ccccc2n(CC(=O)NCCC2=CCCCC2)c1=O)NCc1ccco1`, under setting [1], the AC50 was 6.51 µM [rising, single point].
`CC(C)NC(=S)Nc1c(N)[nH]c(=O)[nH]c1=O`: the cell number change was -32.4%. Moreover, under setting [1], the AC50 is 23.1 µM [falling, single point]. The AC50 under setting [2] was 32.6 µM [falling, single point].
As to `CCOC(=O)N1CCN(C(=O)c2ccc3c(c2)sc2nc(-c4ccc(OC)cc4)cn23)CC1`, under setting [1], the concentration at half-maximal activity (AC50) is 4.11 µM [rising, partial curve].
Consider `Cc1ncoc1C(=O)N1CCCC(N2CCN(c3ccccc3F)CC2)C1` (stereo unspecified), for which the cell number change is 1.65%. Also, the AC50 under setting [2] was 0.58 µM [falling, single point].
With `CCC(=O)Nc1nc(N)n(-c2ccccc2)n1`, the cell number change was -18.6%. For the same compound, the AC50 under setting [1] was 0.651 µM [falling, full curve, poor fit]. Also, under setting [2], the AC50 was 23.1 µM [falling, partial curve].
Consider `COc1ccccc1CC(=O)NC1CCC(C)CC1` (stereo unspecified), for which the cell number change is 1.47%.
`CN(C)S(=O)(=O)N1CCC(Oc2cccc(C(=O)N3CCSCC3)c2)CC1`: the cell number change is 11.8%. Besides, the AC50 under setting [2] was 0.00461 µM [rising, full curve, poor fit].
Turning to `CCOc1ccc(C2C(C(=O)Nc3cc(C)on3)c3ccccc3C(=O)N2CCN2CCOCC2)cc1` (stereo unspecified), the cell number change stood at 1.19%. Further, the AC50 under setting [1] was 6.51 µM [rising, single point]. In addition, the AC50 under setting [2] is 6.51 µM [rising, single point].
Consider `O=C(COC(=O)Cc1ccc(Br)cc1)NCc1ccc2c(c1)OCO2`, for which the cell number change is -28%. Further, under setting [1], the AC50 was 0.517 µM [falling, full curve, poor fit].
Regarding `CCN(CC)S(=O)(=O)c1ccc(N=Cc2c(C)c(C#N)c(=O)n(C)c2O)cc1`, the cell number change is 81.7%. In addition, under setting [1], the AC50 is 18.4 µM [rising, single point]. Moreover, the AC50 under setting [2] was 8.2 µM [rising, partial curve].
On to `CSCC[C@H](NC(=O)OC(C)(C)C)C(=O)N1CCC(C(=O)N[C@H](C(=O)O)C(C)C)CC1`, for which the cell number change was -13.4%. For the same compound, under setting [1], the AC50 is 4.11 µM [falling, single point]. For the same compound, under setting [2], the AC50 was 0.00517 µM [falling, full curve].
Consider `Nc1nonc1-n1nnc(C(=O)N/N=C/c2cccc(F)c2)c1-c1ccccc1`, for which the cell number change was -10.5%.
For `CC(C)COc1ccc(C(=O)Nc2sc3c(c2C(=O)O)CC(C)(C)OC3)cc1`, the cell number change was -23%. Under setting [1], the AC50 was 8.2 µM [falling, partial curve, poor fit].
On to `COc1ccc(N2CC(C)Cn3c2nc2c3c(=O)n(CCN3CCOCC3)c(=O)n2C)cc1` (stereo unspecified), for which the AC50 under setting [2] is 29.1 µM [falling, single point].
For the compound `CCOC(=O)c1cnn(-c2nc3c(C)cccc3s2)c1C(F)(F)F`, the cell number change is -20.6%. Further, under setting [2], the AC50 was 6.51 µM [rising, single point].
`O=C(OCC(=O)N1CCCCCC1)c1ccc(Cl)c(S(=O)(=O)N2CCCC2)c1`: the cell number change is 8.12%. Besides, under setting [1], the AC50 is 2.06 µM [rising, partial curve, poor fit]. In addition, the AC50 under setting [2] was 0.731 µM [rising, full curve, poor fit].
With `CC(C)C(=O)NC(=S)Nc1ccc(S(=O)(=O)Nc2nccs2)cc1`, the cell number change was determined as 11.2%. The AC50 under setting [2] was 0.0259 µM [rising, full curve, poor fit].
As for `CCCc1cc(=O)[nH]c(SCC(=O)N2CCC(C)CC2)n1`, the AC50 under setting [2] was 6.51 µM [falling, single point].
Turning to `CCOCCCNC(=O)Cc1ccc(OC)c(OC)c1`, the cell number change was -23.1%.
For the compound `CSCCC(NC(=O)c1ccc(Cl)cc1)C(=O)OCC(=O)NCc1ccco1` (stereo unspecified), the cell number change is 55.5%. For the same compound, the AC50 under setting [1] is 11.6 µM [rising, partial curve, poor fit].
In the case of `Cc1nc(Nc2ccc(S(N)(=O)=O)cc2)oc1C`, the cell number change is -8.06%.
On to `COc1cc(CN2CCC(n3nccc3NC(=O)c3ccc4c(c3)OCO4)CC2)ccc1O`, for which the cell number change was -15.3%. Also, under setting [1], the AC50 was 1.84 µM [rising, partial curve].
Consider `Cc1cccc(C)c1NC(=O)CN(C)C(=O)Cn1c(=O)cnc2ccccc21`, for which the cell number change amounted to 25.4%. Moreover, the AC50 under setting [1] was 0.708 µM [rising, full curve, poor fit]. Further, the AC50 under setting [2] was 0.562 µM [rising, full curve, poor fit].
Consider `O=C(NCC1COc2ccccc2O1)c1ccc(F)c(S(=O)(=O)N2CCOCC2)c1` (stereo unspecified), for which the cell number change came out at 0.402%.
`O=C(OCC(=O)N1CCCC1)c1cc(F)c(F)cc1Cl`: the cell number change was 20.3%. For the same compound, under setting [2], the AC50 is 0.651 µM [rising, full curve, poor fit].
In the case of `COc1cccc(C(=O)NCCC2=CCCCC2)c1`, the AC50 under setting [2] was 6.51 µM [falling, single point].
On to `Cc1ccc2[nH]c(=S)cc(C)c2c1`, for which the cell number change is 13.7%. Also, under setting [2], the AC50 was 0.58 µM [rising, full curve, poor fit].
Turning to `CC(=O)C1=C(c2ccccc2)NC(=S)NC1c1cc(Cl)c(OC(C)C)c(Cl)c1` (stereo unspecified), the cell number change is -18.1%.
For `Cc1nn(Cc2ccccc2Cl)c(C)c1NC(=O)Cn1nc([N+](=O)[O-])c(Cl)c1C`, the AC50 is 0.00461 µM [rising, full curve, poor fit] under setting [1] and 0.58 µM [rising, partial curve] under setting [2].
Take `O=C(Nc1ccc(F)cc1)c1cc(S(=O)(=O)Nc2ccc(F)cc2)cs1`: the cell number change is -44.3%.
Take `COc1ccccc1C1CC(c2ccccc2)=NN1S(=O)(=O)c1ccccc1` (stereo unspecified): the cell number change is 6.3%. Further, the AC50 under setting [1] is 2.06 µM [rising, partial curve].
As to `Cc1cc(-c2nnc(SCC(=O)NC3CCCC3)o2)no1`, the cell number change amounted to 29.8%. Also, the AC50 under setting [2] is 10.3 µM [rising, partial curve].
As to `Cc1cc(C)n2c(SCC(=O)Nc3ncc(C(F)(F)F)cc3Cl)nnc2n1`, the cell number change is -8.79%. Under setting [2], the AC50 was 7.31 µM [rising, single point].
As to `CCN(C(=O)CSc1nccn1C)c1cccc2ccccc12`, the cell number change was determined as 21.6%. In addition, under setting [2], the half-maximal activity concentration (AC50) is 0.231 µM [rising, full curve, poor fit].
`COCCn1c(-c2ccc(OC(F)(F)C(F)C(F)(F)F)cc2)nc2c1c(=O)[nH]c(=O)n2CC(C)C` (stereo unspecified): the cell number change was -41.4%. Moreover, the AC50 under setting [1] is 16.4 µM [falling, partial curve]. Also, the AC50 under setting [2] is 14.6 µM [falling, partial curve].
As for `Cc1ccc(CSc2nnc(-c3ccco3)o2)cc1`, the cell number change stood at 35.3%. For the same compound, under setting [1], the AC50 is 29.1 µM [rising, single point].
For `CCOc1ccc(NC(=S)N2CCn3c(nc4ccccc43)C2)cc1`, the cell number change is 30.5%.
For the compound `O=C(Cc1ccccc1)NCCc1cn2ccsc2n1`, the cell number change came to 15%.
As to `CC(C)OCCCNCC(O)c1ccccc1` (stereo unspecified), the cell number change was 10.9%. Moreover, under setting [2], the AC50 was 18.4 µM [rising, partial curve, poor fit].
Turning to `CC(=O)Nc1ccc(S(=O)(=O)N2CCN=C2SCc2ccc([N+](=O)[O-])cc2)cc1`, the cell number change was -46.1%. Under setting [1], the AC50 was 35.5 µM [falling, single point]. Moreover, under setting [2], the AC50 was 35.5 µM [falling, single point].
`Cc1ccccc1-c1cc(-c2ccccc2O)n[nH]1`: the cell number change is -36%. Under setting [1], the AC50 is 32.6 µM [falling, single point].
In the case of `Cc1cc(=O)oc(C)c1C(=O)NCCC1=CCCCC1`, the cell number change was -91%. The AC50 under setting [1] is 29.1 µM [falling, single point]. Besides, the AC50 under setting [2] was 29.1 µM [falling, single point].
Consider `Cc1ccc(-n2ncc3c(N4CCN(c5ccccc5)CC4)ncnc32)c(C)c1`, for which the cell number change is -7.6%. The AC50 under setting [1] is 6.51 µM [falling, single point]. The AC50 under setting [2] is 2.31 µM [falling, partial curve, poor fit].
In the case of `COc1ccccc1CC(=O)O/N=C(\N)c1cccc([N+](=O)[O-])c1`, the cell number change worked out at 28%.
In the case of `COc1cccc(C(=O)NOCc2ccccc2)c1OC`, the cell number change was -1.3%. Further, under setting [2], the AC50 is 13 µM [rising, partial curve, poor fit].
Regarding `COc1ccc(CCNc2c([N+](=O)[O-])c(=O)oc3ccccc23)cc1OC`, the cell number change is -22.2%. Also, the AC50 under setting [2] was 14.6 µM [falling, partial curve].

What is called AC50 is the concentration at which the activity in the assay is half-maximal. Higher therefore signals weaker potency.
